These are yes or no findings as the source states them, for the method shown. In cells and extracts the contact can be indirect. Some binding calls cover weakened binding; strength is not graded here. Where a sequence is shown, tags or fusion partners need not be part of it.
T1: FLAG-tagged NEK8 (NIMA-related kinase 8) (UniProt Q86SG6)
T1 sequence: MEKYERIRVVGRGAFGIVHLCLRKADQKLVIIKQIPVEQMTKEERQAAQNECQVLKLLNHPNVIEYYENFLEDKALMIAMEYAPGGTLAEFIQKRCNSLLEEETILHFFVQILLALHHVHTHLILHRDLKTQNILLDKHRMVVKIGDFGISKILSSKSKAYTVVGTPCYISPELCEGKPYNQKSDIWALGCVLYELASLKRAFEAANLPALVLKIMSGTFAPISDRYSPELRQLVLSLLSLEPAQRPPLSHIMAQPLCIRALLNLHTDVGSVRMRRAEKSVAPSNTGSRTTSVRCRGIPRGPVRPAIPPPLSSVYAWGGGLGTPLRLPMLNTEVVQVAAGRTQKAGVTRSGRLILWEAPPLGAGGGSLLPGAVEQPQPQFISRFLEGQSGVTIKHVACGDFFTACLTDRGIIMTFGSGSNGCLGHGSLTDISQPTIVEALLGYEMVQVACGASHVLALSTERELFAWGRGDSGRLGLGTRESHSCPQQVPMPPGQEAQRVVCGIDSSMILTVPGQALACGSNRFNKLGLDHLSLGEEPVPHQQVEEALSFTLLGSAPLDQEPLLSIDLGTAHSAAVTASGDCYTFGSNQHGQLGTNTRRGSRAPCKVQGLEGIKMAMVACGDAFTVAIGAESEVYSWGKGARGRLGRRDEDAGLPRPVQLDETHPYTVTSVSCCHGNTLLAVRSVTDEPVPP

Chains of the proteins cited; added tags and fusions are not shown. Residues count along the entry.
UniProt Q17R60, residues 21-797: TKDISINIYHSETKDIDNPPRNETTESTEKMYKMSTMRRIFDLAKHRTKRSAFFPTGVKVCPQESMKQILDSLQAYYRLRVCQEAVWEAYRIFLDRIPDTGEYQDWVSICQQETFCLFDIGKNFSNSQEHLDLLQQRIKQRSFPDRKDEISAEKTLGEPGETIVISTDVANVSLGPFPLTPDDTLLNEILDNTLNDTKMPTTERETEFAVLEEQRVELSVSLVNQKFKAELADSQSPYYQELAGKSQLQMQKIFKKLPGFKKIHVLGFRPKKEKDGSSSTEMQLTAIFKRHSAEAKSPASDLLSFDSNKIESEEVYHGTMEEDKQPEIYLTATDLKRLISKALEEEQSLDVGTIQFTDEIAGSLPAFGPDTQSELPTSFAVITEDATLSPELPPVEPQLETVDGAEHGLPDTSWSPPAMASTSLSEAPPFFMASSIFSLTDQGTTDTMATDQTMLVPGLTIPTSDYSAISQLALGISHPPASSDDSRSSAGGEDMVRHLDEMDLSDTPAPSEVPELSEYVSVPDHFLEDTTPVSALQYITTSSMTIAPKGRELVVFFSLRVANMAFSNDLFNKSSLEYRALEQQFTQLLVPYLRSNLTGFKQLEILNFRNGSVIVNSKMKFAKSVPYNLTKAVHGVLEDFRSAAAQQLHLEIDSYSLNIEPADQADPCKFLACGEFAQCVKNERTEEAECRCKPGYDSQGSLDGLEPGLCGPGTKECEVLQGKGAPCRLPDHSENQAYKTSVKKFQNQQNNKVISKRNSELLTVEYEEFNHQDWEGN

T2: FLAG-tagged NPHP1 (UniProt O15259)
T2 sequence: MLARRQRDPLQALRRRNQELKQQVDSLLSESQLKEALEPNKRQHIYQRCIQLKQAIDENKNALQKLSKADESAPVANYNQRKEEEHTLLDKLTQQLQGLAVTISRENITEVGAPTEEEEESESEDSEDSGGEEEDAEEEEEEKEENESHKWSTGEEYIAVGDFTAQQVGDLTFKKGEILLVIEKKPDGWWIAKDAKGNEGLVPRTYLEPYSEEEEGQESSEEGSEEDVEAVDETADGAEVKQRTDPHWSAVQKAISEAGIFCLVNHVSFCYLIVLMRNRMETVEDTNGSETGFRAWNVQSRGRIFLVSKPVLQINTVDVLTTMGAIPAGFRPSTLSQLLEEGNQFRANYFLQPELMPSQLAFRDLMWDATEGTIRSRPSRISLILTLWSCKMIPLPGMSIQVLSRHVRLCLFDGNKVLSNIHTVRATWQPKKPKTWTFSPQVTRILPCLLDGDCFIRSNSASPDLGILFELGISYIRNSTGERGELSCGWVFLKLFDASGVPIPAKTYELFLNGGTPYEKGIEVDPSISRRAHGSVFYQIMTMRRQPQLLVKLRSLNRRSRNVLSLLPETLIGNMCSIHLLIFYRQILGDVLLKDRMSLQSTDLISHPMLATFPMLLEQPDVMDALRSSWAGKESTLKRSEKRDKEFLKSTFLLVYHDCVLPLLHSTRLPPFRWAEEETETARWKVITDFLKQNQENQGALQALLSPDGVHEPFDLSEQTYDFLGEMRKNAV

T3: FLAG-tagged NME3 (NME/NM23 nucleoside-diphosphate kinase 3), wild type (human) (UniProt Q13232)
T3 sequence: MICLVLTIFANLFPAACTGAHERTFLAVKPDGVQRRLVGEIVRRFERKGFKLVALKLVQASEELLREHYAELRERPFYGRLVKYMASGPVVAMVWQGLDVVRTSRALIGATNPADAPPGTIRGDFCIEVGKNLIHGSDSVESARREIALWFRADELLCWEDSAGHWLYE

B1: V5-tagged NME3 (enzyme, UniProt Q13232 1-169)
chain: T3 sequence
B2: V5-tagged ANKS6 (ankyrin repeat and sterile alpha motif domain-containing 6) (protein, UniProt Q68DC2 1-871)
chain: MGEGGLPPAFQLLLRACDQGDTETARRLLEPGAAEPAERGAEPEAGAEPAGAEVAGPGAAAAGAVGAPVPVDCSDEAGNTALQFAAAGGHEPLVRFLLRRGASVNSRNHYGWSALMQAARFGHVSVAHLLLDHGADVNAQNRLGASVLTVASRGGHLGVVKLLLEAGAFVDHHHPSGEQLGLGGSRDEPLDITALMAAIQHGHEAVVRLLMEWGADPNHAARTVGWSPLMLAALTGRLGVAQQLVEKGANPDHLSVLEKTAFEVALDCKHRDLVDYLDPLTTVRPKTDEEKRRPDIFHALKMGNFQLVKEIADEDPSHVNLVNGDGATPLMLAAVTGQLALVQLLVERHADVDKQDSVHGWTALMQATYHGNKEIVKYLLNQGADVTLRAKNGYTAFDLVMLLNDPDTELVRLLASVCMQVNKDKGRPSHQPPLPHSKVRQPWSIPVLPDDKGGLKSWWNRMSNRFRKLKLMQTLPRGLSSNQPLPFSDEPEPALDSTMRAAPQDKTSRSALPDAAPVTKDNGPGSTRGEKEDTLLTTMLRNGAPLTRLPSDKLKAVIPPFLPPSSFELWSSDRSRTRHNGKADPMKTALPQRASRGHPVGGGGTDTTPVRPVKFPSLPRSPASSANSGNFNHSPHSSGGSSGVGVSRHGGELLNRSGGSIDNVLSQIAAQRKKAAGLLEQKPSHRSSPVGPAPGSSPSELPASPAGGSAPVGKKLETSKRPPSGTSTTSKSTSPTLTPSPSPKGHTAESSVSSSSSHRQSKSSGGSSSGTITDEDELTGILKKLSLEKYQPIFEEQEVDMEAFLTLTDGDLKELGIKTDGSRQQILAAISELNAGKGRERQILQETIHNFHSSFESSASNTRAPGNSPCA

Columns and labels:
Assay in all cases: co-IP; FLAG-tagged and V5-tagged proteins coexpressed in HEK293T cells (calcium phosphate, 24 h); lysis in 1% Triton X-100, 20 mM Tris pH 7.5, 50 mM NaCl, 50 mM NaF, 15 mM Na4P2O7, 0.1 mM EDTA; anti-FLAG M2 agarose beads 2 h; Western blot with anti-V5 and anti-FLAG
[1] = target: T1, FLAG-tagged NEK8 (NIMA-related kinase 8)
FLAG-tagged NPHP1 = target: T2, FLAG-tagged NPHP1
[2] = target: FLAG-tagged IMPG1 (interphotoreceptor matrix glycoprotein) (UniProt Q17R60)
[3] = target: T3, FLAG-tagged NME3 (NME/NM23 nucleoside-diphosphate kinase 3), wild type (human)

Row | Binder | binding [1] | binding (FLAG-tagged NPHP1) | binding [2] | binding [3]
1 | B1 | binds | binds |  | 
2 | B2 |  |  | binds | binds

— PMC6166740
